Test in all cases: radiolabeled GST-peptide probe on a western blot of WW domains (far-western)
A general note: In western blotting, separated proteins are transferred to a membrane and probed.

The target in assay [1] is WW domain of FBP30.
The target in assay [2] is WW domain of YAP.
Assay [3] deals with GST alone.

Results are given in words; binding and its absence hold for the method and conditions named. For part of these data: Binding calls can cover weak binding; strength is not graded here. Where a sequence is shown, tags or fusion partners need not be part of it.

With GMGIPPPPPLPGVGIPPPPPLP (peptide, not shown: a dimerising Fc or GST, radiolabeled (label and position not stated)), the binding result is “binds” in assay [1], “no binding” in assay [2] and “no binding” in assay [3].

Values taken from US20030170683A1.
